Primary screen of a compound library

The chains behind the UniProt entries cited, without tags or fusion partners. Residues count along the entry.
UniProt P9WPC5, whole entry: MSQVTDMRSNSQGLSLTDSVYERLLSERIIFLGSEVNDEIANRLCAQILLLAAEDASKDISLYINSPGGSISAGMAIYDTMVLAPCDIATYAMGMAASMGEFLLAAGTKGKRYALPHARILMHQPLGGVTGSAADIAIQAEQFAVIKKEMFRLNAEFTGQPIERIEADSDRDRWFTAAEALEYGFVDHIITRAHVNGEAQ
UniProt P9WPC3, whole entry partner: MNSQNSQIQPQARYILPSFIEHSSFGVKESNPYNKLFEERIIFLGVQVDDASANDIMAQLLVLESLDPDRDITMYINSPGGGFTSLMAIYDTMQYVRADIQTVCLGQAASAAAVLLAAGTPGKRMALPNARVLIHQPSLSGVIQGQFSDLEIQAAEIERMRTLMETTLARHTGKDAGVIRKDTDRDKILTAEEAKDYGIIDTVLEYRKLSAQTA
UniProt Q8IDJ8, 1-583: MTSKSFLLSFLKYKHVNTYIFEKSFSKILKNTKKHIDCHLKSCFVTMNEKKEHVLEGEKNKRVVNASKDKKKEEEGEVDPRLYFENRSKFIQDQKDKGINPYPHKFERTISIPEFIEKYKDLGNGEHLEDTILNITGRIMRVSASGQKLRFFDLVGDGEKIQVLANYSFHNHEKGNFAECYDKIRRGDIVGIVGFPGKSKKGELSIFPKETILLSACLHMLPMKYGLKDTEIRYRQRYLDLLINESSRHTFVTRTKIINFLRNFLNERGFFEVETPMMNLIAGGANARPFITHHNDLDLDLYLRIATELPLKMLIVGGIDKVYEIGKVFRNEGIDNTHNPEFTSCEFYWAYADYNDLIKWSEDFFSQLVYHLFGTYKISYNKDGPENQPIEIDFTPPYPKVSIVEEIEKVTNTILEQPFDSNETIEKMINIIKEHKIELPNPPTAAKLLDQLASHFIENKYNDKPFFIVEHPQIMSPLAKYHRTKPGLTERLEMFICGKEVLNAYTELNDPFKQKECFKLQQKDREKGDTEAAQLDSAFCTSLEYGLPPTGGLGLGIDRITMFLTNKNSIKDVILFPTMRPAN

Measurements from “University of Dundee, Small-Polar-MMV Screening Library” (2021), ChEMBL document CHEMBL3988442.

A: 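Cell assay of Leishmania donovani living inside macrophages; the read-out is not stated. Concentration: 30 µM. Direction is inferred from retests: higher values go with stronger inhibition. Size under these conditions: about 69,000 compounds, about 1,000 of them at 50% or above in at least one test.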
B: 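ClpP1P2, Mycobacterium tuberculosis (UniProt P9WPC5 and UniProt P9WPC3). Protease assay of ClpP1P2, read by the AMC dye that it sets free. Compounds at 50 µM. Direction is inferred from only a few compounds that gave an IC50; most scored high, so higher reads as stronger inhibition. Most other retested compounds had strongly negative values. Of about 69,000 compounds tested this way, about 10 (0.015%) reached 50% or more in at least one test.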
C: 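Assay of Toxoplasma gondii numbers, read through their beta-galactosidase reporter with a colour substrate. Tested at 10 µM. Higher reads as fewer parasites (inferred from which compounds were picked for retests). Size under these conditions: about 67,000 compounds, about 260 of them at 50% or above in at least one test.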
D: 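Lysine-tRNA ligase, Plasmodium falciparum 3D7 (UniProt Q8IDJ8). Enzyme assay of the cytosolic lysyl-tRNA synthetase in 384-well plates, read by luminescence. Concentration: 30 µM. Higher reads as stronger inhibition, judged from the few compounds that gave an IC50. Of about 69,000 compounds tested this way, about 49 (0.071%) reached 50% or more in at least one test.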

Values are the deposited “Percent Effect”, in %.
The record does not define 0% and 100%; most values in the screen are far below 50% and negative numbers occur (in some assays of this library far below -100).
This is an unselected part of the compounds tested.

SMILES: Cc1c(F)cc(C(=O)O)cc1S(=O)(=O)Nc1ccc(F)c(C#N)c1
A: -13.84
B: -9.845
C: 11.08
D: 0.8127

SMILES: Cc1cc(O)c(OCC(=O)Nc2nc3c(s2)CCCCC3)cn1
A: 14.24
B: -15.01
C: -27.96
D: 3.8

SMILES: O=C1CCC(C(=O)NCCOc2ccccc2-c2ccccc2)CN1 (stereo not shown)
A: -15.84
B: 7.554
C: -1.34
D: 1.53

SMILES: CCC(=O)c1ccccc1NN1c2ccccc2C(=O)C1(C)OC (stereo not shown)
A: 62.96
B: -12.01
C: -15.07
D: 1.44

SMILES: CN(C)S(=O)(=O)N1C[C@@H]2CC[C@H](C1)N(Cc1ccc3c(c1)OCCO3)C2
B: -5.608
D: 0.8261

SMILES: CC(C)(C)C(=O)N1CC[C@@H]2[C@H](CC1)N(S(C)(=O)=O)CCS2(=O)=O
B: 8.887
D: 0.5227

SMILES: CCS(=O)(=O)N1CCC2(CCN(Cc3cccc(OC)c3)CC2)CC1
B: -6.86
D: 0.2294

SMILES: CC(C)(C)C(=O)NCC(=O)NC1CC(c2cccc(Cl)c2)C1 (stereo not shown)
A: 7.237
B: -2.615
C: -1.669
D: 5.459

SMILES: CCN1CCN(S(=O)(=O)c2cnc(NC(C)=O)s2)CC1
A: 12.01
B: -10.45
C: -3.243
D: 6.189

SMILES: Cc1ccc(N2CCO[C@H]3CN(Cc4nccs4)C[C@H]32)nn1
B: 5.018
D: 7.869

SMILES: Cc1cc(-c2nn(C)c(Cl)c2CN2CCOCC(O)C2)no1 (stereo not shown)
A: 19.47
B: 2.045
C: -65.75
D: 5.82

SMILES: Cc1nc(C(=O)N2CCOC(Cc3ccccc3)C2)co1 (stereo not shown)
A: -7.526
B: -7.857
D: 1.642

SMILES: CN(Cc1ccc([S+](C)[O-])cc1)c1ccccn1 (stereo not shown)
A: 26.15
B: -18.81
C: 13.17
D: 0.9846

SMILES: [H][C@]12CC[C@@]3(N=C(c4ccccc4)NC3=O)[C@@]1([H])CN(C(=O)c1cccs1)C2
A: 16.55
C: -1.455

SMILES: CCN1CCN(C[C@@H]2CN(c3ncc(Cl)cc3F)C[C@@H]2CO)CC1
A: 46.16
B: -11.29
C: 5.452
D: 6.621

SMILES: c1ccc(CN2CCOC3(CCN(c4ncccn4)CC3)C2)nc1
B: -2.089
D: 2.539

SMILES: CN(CC(=O)Nc1ccccc1)C(=O)CN(C)c1ccc(Cl)cn1
A: -5.798
B: -7.659
C: 9.383
D: -1.617

SMILES: CN(C)CCOc1ccc(CNC(=O)c2cccc3[nH]ncc23)cc1
A: -8.557
B: -2.67
C: 2.924
D: 4.629

SMILES: N#Cc1ccc(CNc2ncc(C#N)cc2Cl)cc1
A: -62.65
B: -8.204
C: -6.283
D: 0.9692

SMILES: COc1cccc(CN(C)C(=O)CSc2ccc3c(c2)OCCO3)c1
A: 32.66
B: -3.544
C: 0.9553
D: -4.074

SMILES: COCCN1CCc2c(c(COc3cccnc3)nn2C)C1.O=C(O)C(F)(F)F.O=C(O)C(F)(F)F
A: 24.9
C: 5.029

SMILES: CN(Cc1ccsc1)C(=O)CS(=O)(=O)Cc1ccc(Cl)c(Cl)c1
A: 27.01
B: 13.58
C: -1.949
D: 1.229

SMILES: CN(C)C(=O)C1CCC2(CCNCC2)C1 (stereo not shown)
B: -2.41
D: 7.227

SMILES: O=C(NCCc1noc(C2CCCC2)n1)c1cn2ccsc2n1
A: -7.801
B: -12.28
C: -44.44
D: 5.673

Some entries from above, unchanged:

With c1ccc(CN2CCOC3(CCN(c4ncccn4)CC3)C2)nc1 the screen gave B: -2.089%; D: 2.539%.
With CCS(=O)(=O)N1CCC2(CCN(Cc3cccc(OC)c3)CC2)CC1 the screen gave B: -6.86%; D: 0.2294%.